In the supplement of paper PMC4604168 (melanoma cell lines):
Some of the results follow. Many values rest on one well or one pass, so single values are uncertain.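 Imaging used 1,536-well plates; nuclei positive for cleaved PARP by antibody were divided by total DNA-stained nuclei to yield the apoptosis fraction. Doses for screening kept most cells viable, and cell lines differ markedly in resting and induced cleaved-PARP levels.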

Assays:
Experiment in all cases: cleaved PARP positive nuclei fraction relative to DMSO control; melanoma cells; higher = more apoptosis
Conditions in all cases: library dose: low library concentration; 72 h
MZ2-MEL = tested on: MZ2-MEL
MeWo = tested on: MeWo
RPMI7951 = tested on: RPMI7951
RVH-421 = tested on: RVH-421
SkMel28 = tested on: SkMel28
SkMel30 = tested on: SkMel30
SkMel5 = tested on: SkMel5
UACC257 = tested on: UACC257
UACC62 = tested on: UACC62

Row | SMILES | cleaved PARP positive nuclei fraction (MZ2-MEL) [%] | cleaved PARP positive nuclei fraction (MeWo) [%] | cleaved PARP positive nuclei fraction (RPMI7951) [%] | cleaved PARP positive nuclei fraction (RVH-421) [%] | cleaved PARP positive nuclei fraction (SkMel28) [%] | cleaved PARP positive nuclei fraction (SkMel30) [%] | cleaved PARP positive nuclei fraction (SkMel5) [%] | cleaved PARP positive nuclei fraction (UACC257) [%] | cleaved PARP positive nuclei fraction (UACC62) [%]
1 | COc1ccc(-c2ccc3c(N4CCOCC4)nc(N4C[C@@H](C)O[C@@H](C)C4)nc3n2)cc1CO + O=S(=O)(c1ccccc1)N(CC(F)(F)F)c1ccc(C(O)(C(F)(F)F)C(F)(F)F)cc1 [T0901317] (first compound 0.02 µM, partner dose 1.4 µM) | 67.3 | 29.8 | 213 | 249 | 163 | 140 | 94.8 | 217 | 63.3
2 | COc1ccc2c(c1)CCC1C2CCC2(C)C(NCCCCCCN3C(=O)C=CC3=O)CCC12 (configuration not stated) + COc1ccc(COc2ccc(Cc3cnc(N)nc3N)cc2OC)cc1 [GW2580] (first compound 0.4 µM, partner dose 1 µM) | 155 | 131 | 75.2 | 115 | 96 | 26.7 | 41.6 | 242 | 79.1
3 | COc1ccc2c(c1)CCC1C2CCC2(C)C(NCCCCCCN3C(=O)C=CC3=O)CCC12 (configuration not stated) + Oc1cc(-c2nc(-c3ccccc3)[nH]c2-c2ccncc2)ccc1Cl [L779450] (first compound 0.4 µM, partner dose 0.2 µM) | 121 | 57 | 309 | 93.2 | 172 | 49.1 | 26.1 | 42.1 | 136
4 | CN(NC(=O)CC(=O)NN(C)C(=S)c1ccccc1)C(=S)c1ccccc1 + Oc1nc(-c2ccc(C(F)(F)F)cc2)nc2c1CSCC2 [XAV939] (first compound 0.006 µM, partner dose 2 µM) | 71.6 | 112 | 384 | 104 | 118 | 22.9 | 167 | 179 | 69.4
5 | Oc1nc(-c2ccc(C(F)(F)F)cc2)nc2c1CSCC2 + Cn1cc(/C=C2\C(=O)Nc3cccnc32)c2ccccc21 [GW441756] (first compound 2 µM, partner dose 0.4 µM) | 104 | 179 | 81.2 | 80.8 | 140 | 34.4 | 63.9 | 51.3 | 109
6 | COc1ccc(-c2ccc3c(N4CCOCC4)nc(N4C[C@@H](C)O[C@@H](C)C4)nc3n2)cc1CO + COc1cc2ncnc(Nc3ccc(Oc4ccccc4)cc3)c2cc1OC [SrcI1] (first compound 0.02 µM, partner dose 2 µM) | 62.6 | 33.3 | 216 | 171 | 132 | 30.5 | 82.4 | 55.8 | 69.8
7 | O=C(Nc1ccccc1)c1cc([N+](=O)[O-])ccc1Cl + O=C1NC(=O)/C(=C/c2ccc(-c3ccc(F)cc3O)o2)S1 [AS252424] (first compound 2 µM, partner dose 1 µM) | 110 | 174 | 60.3 | 62 | 104 | 20 | 51.1 | 124 | 103
8 | O=C(Nc1ccccc1)c1cc([N+](=O)[O-])ccc1Cl + O=c1cc(-c2cccc3c2Sc2ccccc2S3)oc(N2CCOCC2)c1 [KU55933] (first compound 2 µM, partner dose 1 µM) | 119 | 116 | 107 | 24.6 | 110 | 119 | 37 | 100 | 33
9 | CN(NC(=O)CC(=O)NN(C)C(=S)c1ccccc1)C(=S)c1ccccc1 + Oc1cc(-c2nc(-c3ccccc3)[nH]c2-c2ccncc2)ccc1Cl [L779450] (first compound 0.006 µM, partner dose 0.2 µM) | 92.2 | 270 | 73.2 | 89.3 | 146 | 77.7 | 60.6 | 91.9 | 185
10 | COc1ccc2c(c1)CCC1C2CCC2(C)C(NCCCCCCN3C(=O)C=CC3=O)CCC12 (configuration not stated) + Oc1nc(-c2ccc(C(F)(F)F)cc2)nc2c1CSCC2 [XAV939] (first compound 0.4 µM, partner dose 2 µM) | 61.8 | 60.9 | 182 | 43.2 | 163 | 98.9 | 64.2 | 110 | 80.9
11 | Cn1cc(/C=C2\C(=O)Nc3cccnc32)c2ccccc21 + CC(C)CCN1c2nc(Nc3cc(F)c(O)c(F)c3)ncc2N(C)C(=O)C1C [BID1870] (first compound 0.4 µM, partner dose 0.2 µM) | 118 | 74.5 | 73.4 | 98.2 | 200 | 28.9 | 84.9 | 46.5 | 204
12 | O=C(O)C(=O)Nc1sc2c(c1C(=O)O)CCNC2 + Cn1cc(/C=C2\C(=O)Nc3cccnc32)c2ccccc21 [GW441756] (first compound 1.66667 µM, partner dose 0.4 µM) | 64 | 46.3 | 81.7 | 229 | 102 | 106 | 68.5 | 103 | 83.1
13 | COc1cc(N2CCC(N3CCN(C)CC3)CC2)ccc1Nc1ncc(Cl)c(Nc2ccccc2S(=O)(=O)C(C)C)n1 + Cn1cc(/C=C2\C(=O)Nc3cccnc32)c2ccccc21 [GW441756] (first compound 0.08 µM, partner dose 0.4 µM) | 288 | 55.1 | 86.9 | 96.1 | 156 | 42.5 | 37.5 | 174 | 250

Shown in CSV form: entries from further up
Row,SMILES,cleaved PARP positive nuclei fraction (MZ2-MEL) [%],cleaved PARP positive nuclei fraction (MeWo) [%],cleaved PARP positive nuclei fraction (RPMI7951) [%],cleaved PARP positive nuclei fraction (RVH-421) [%],cleaved PARP positive nuclei fraction (SkMel28) [%],cleaved PARP positive nuclei fraction (SkMel30) [%],cleaved PARP positive nuclei fraction (SkMel5) [%],cleaved PARP positive nuclei fraction (UACC257) [%],cleaved PARP positive nuclei fraction (UACC62) [%]
4,"CN(NC(=O)CC(=O)NN(C)C(=S)c1ccccc1)C(=S)c1ccccc1 + Oc1nc(-c2ccc(C(F)(F)F)cc2)nc2c1CSCC2 [XAV939] (first compound 0.006 µM, partner dose 2 µM)",71.6,112,384,104,118,22.9,167,179,69.4
12,"O=C(O)C(=O)Nc1sc2c(c1C(=O)O)CCNC2 + Cn1cc(/C=C2\C(=O)Nc3cccnc32)c2ccccc21 [GW441756] (first compound 1.66667 µM, partner dose 0.4 µM)",64,46.3,81.7,229,102,106,68.5,103,83.1
